Experimental data as given in PMC4627338.
These are yes or no findings as the source states them, for the method shown. Binding seen in cells or lysates may run through a third protein. Some binding calls cover weakened binding; strength is not graded here.

Protein sequences, listed by entry. Tags and fused reporters are not part of them.
UniProt Q15562: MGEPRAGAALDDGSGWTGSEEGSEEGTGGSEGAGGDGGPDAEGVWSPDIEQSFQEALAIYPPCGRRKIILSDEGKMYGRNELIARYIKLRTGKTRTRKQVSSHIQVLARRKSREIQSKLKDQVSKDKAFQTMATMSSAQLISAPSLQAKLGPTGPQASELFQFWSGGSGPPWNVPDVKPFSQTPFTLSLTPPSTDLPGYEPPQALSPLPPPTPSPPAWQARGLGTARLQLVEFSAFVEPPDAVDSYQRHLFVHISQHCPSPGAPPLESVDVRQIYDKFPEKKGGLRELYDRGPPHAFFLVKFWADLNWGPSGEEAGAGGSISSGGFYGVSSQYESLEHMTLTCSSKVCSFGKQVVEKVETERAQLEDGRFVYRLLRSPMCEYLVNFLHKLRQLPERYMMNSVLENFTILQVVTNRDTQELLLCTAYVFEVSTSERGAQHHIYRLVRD
UniProt Q99594: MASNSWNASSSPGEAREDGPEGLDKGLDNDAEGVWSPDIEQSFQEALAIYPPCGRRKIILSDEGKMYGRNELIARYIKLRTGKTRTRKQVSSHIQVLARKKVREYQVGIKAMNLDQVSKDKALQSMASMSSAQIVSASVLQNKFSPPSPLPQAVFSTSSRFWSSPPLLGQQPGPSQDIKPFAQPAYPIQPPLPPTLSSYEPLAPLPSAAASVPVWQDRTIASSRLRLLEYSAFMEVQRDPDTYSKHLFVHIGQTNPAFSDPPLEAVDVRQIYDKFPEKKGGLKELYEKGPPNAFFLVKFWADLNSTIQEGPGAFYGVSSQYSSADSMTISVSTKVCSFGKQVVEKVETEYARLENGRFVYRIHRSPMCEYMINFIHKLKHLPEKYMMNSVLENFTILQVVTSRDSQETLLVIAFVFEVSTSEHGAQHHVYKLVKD
UniProt Q15561: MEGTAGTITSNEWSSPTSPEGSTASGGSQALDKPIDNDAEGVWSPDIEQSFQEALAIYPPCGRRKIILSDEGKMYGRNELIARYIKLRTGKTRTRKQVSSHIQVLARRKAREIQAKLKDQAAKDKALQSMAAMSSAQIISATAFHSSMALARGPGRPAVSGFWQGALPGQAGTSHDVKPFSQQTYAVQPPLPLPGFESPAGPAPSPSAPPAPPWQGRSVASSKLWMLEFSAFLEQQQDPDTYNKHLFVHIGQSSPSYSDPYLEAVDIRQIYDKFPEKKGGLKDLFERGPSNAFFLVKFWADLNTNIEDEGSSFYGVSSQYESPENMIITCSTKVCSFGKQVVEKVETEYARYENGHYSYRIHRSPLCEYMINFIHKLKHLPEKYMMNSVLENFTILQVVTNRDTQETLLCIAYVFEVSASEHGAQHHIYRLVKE
UniProt Q13887: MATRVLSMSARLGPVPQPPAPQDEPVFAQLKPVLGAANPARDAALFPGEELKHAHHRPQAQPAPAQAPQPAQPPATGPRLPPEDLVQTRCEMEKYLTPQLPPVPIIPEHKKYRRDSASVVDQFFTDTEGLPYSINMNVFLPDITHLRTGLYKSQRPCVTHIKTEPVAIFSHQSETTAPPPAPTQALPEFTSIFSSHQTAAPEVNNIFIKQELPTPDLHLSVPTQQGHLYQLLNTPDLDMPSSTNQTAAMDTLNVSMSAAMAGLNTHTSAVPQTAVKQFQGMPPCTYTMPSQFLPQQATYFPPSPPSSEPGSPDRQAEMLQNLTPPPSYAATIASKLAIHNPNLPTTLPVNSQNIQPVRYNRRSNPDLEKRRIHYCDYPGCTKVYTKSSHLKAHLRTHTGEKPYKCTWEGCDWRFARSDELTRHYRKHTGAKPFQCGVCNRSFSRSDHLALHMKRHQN

Legend:
Experiment in all cases: co-IP; HEK293FT cells transfected with Flag-tagged TEADs and KLF5; TEADs immunoprecipitated with the anti-Flag antibody, exogenous KLF5 looked for in the precipitate
Flag-TEAD2 = Flag-TEAD2 (UniProt Q15562)
Flag-TEAD3 = Flag-TEAD3 (UniProt Q99594)
Flag-TEAD4 (human) = Flag-TEAD4 (human) (UniProt Q15561)

- binding (Flag-TEAD2): no binding
- binding (Flag-TEAD3): no binding
- binding (Flag-TEAD4 (human)): binds
Substance: KLF5 (from UniProt Q13887 1-457)
